PubChem BioAssay AID1347076 (National Center for Advancing Translational Sciences (NCATS), 2019)
About 13,000 (3.2%) of roughly 400,000 compounds were called active. Inconclusive results, whose numbers are uncertain, are shown with a selection of clear calls. Calls come from the whole dose curve; as a rule, active = well fitted cell-killing curve with a large enough effect; inconclusive = small, poorly fitted or top-dose-only effect, or effect the other way; inactive = flat fitted curve, though single readings scatter. Potencies of inconclusive entries are doubtful fits and often do not repeat.

Test: qHTS assay for MDR1-selective chemotherapeutics: Primary screen using the drug-selected MDR subline cells KB-V1; note: nearly all actives have a fitted effect of over 60% in size
Conditions: KB-V1 MDR cells viability, CellTiter-Glo, 72 h; activity change, negative = cytotoxicity: at 46.1 µM (top of the series)
Summary of the method: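 KB-V1 cells (P-gp-expressing MDR subline of KB-3-1) in phenol-red-free DMEM with 10% FBS were exposed to library compounds over a concentration series for 72 h at 37 degrees C. Viability read by CellTiter-Glo luminescence; concentration-effect curves fitted after normalization.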
% is set by controls: 0 for no effect and ±100 for the full control effect; potency is the fitted concentration of half-maximal effect.

SMILES | Potency | activity change, negative = cytotoxicity
NS(=O)(=O)c1ccc(CCNC(c2ccccc2)c2ccccc2)cc1 | inconclusive: 18.4 µM [cytotoxic, single point] | –
O=C(C[C@H]1C/C=C/CC[C@@H](Cc2ccc(F)cc2)C(=O)OC[C@H](c2ccccc2)NC1=O)NCCO | inconclusive: 7.31 µM [rising, single point] | –
COc1cccc(CNCc2cccc(Br)c2)c1OC | inconclusive: 23.1 µM [cytotoxic, single point] | –
COc1cc(C(C[N+](=O)[O-])c2c(C)[nH]c3ccccc23)ccc1O (stereo unspecified) | inconclusive: 23.1 µM [cytotoxic, single point] | –
FC(F)(F)Oc1ccccc1C(c1nnnn1C1CCCC1)N1CCN(C/C=C/c2ccccc2)CC1 (stereo unspecified) | inconclusive: 29.1 µM [cytotoxic, single point] | –
COc1ccc(NS(=O)(=O)c2ccc(N3CCOCC3)c(NC(=O)c3ccc(F)cc3)c2)cc1 | inconclusive: 6.51 µM [cytotoxic, full curve] | –
COc1ccc(NC(=S)N/C(=N/CS(=O)(=O)c2ccccc2)c2ccccc2)cc1 | – | inactive: 3.39%
CC(C)OC(=O)N(C)C[C@@H]1OCc2cn(nn2)CCCC(=O)N([C@H](C)CO)C[C@H]1C | inconclusive: 29.1 µM [rising, single point] | –
CCN(c1ccccc1)c1nnc(NC(=O)Nc2ccc(Br)cc2F)s1 | inconclusive: 20.6 µM [rising, single point] | –
COc1ccc(-c2csc(NC(=O)CSc3nnc(Nc4ccccc4C)s3)n2)cc1 | – | inactive: -25.5%
COc1ccc(-n2cc(C(=O)c3cc4ccccc4oc3=O)c(C(C)=O)n2)cc1 | inconclusive: 29.1 µM [cytotoxic, single point] | –
CCCCN(C=O)c1c(CC)nc2c(OCCn3cccc3)cccn12 | – | inactive: -5.63%
Cc1cc(NC(=O)CN2C(=O)c3ccccc3C2=O)no1 | inconclusive: 29.1 µM [rising, single point] | –
Clc1ccc(-c2nnc(NCCN3CCCC3)c3ccccc23)cc1 | – | inactive: -2.74%
Cc1ccc(NC(=O)CN2C(=O)NC(C)(C)C2=O)cc1S(=O)(=O)N1CCCCCC1 | inconclusive: 8.2 µM [rising, single point] | –
COc1ccc(-c2nnn(CC(=O)N(CC(=O)NC3CCCC3)Cc3cccs3)n2)cc1OC | active: 11.6 µM | –
CCC(C)NC(=O)C1=CC(c2ccc3c(c2)OCO3)=NS(=O)(=O)N1C (stereo unspecified) | – | inactive: 8.82%
Cc1cnc(C(=O)Nc2ccc(F)cc2)cn1 | inconclusive: 29.1 µM [cytotoxic, single point] | –
CCCCCCCCN1C(=O)[C@H](CC(=O)NCc2cccs2)C[C@@]2(C(=O)OCC)CCCC=C12 | inconclusive: 23.1 µM [cytotoxic, partial curve, poor fit] | –
CCOCCCNC(=S)NNC(=O)CCn1nc(C)c(Br)c1C | active: 14.6 µM | –
COC(=O)c1ccc(Cn2nnc3c(=O)[nH]c(C4CCCN(S(=O)(=O)c5cccc(Cl)c5)C4)nc32)cc1 (stereo unspecified) | inactive | –
Cc1ccc(/C=C2/NC(=O)N(Cc3ccccc3F)C2=O)s1 | inconclusive: 20.6 µM [rising, single point] | –
CCNC(=O)COC(=O)c1cc(-c2ccc(OC)cc2)nc2ccccc12 | – | inactive: 1.93%
COc1ccc(S(=O)(=O)N(C)CC(=O)Nc2c(F)cccc2F)cc1 | inconclusive: 29.1 µM [cytotoxic, single point] | –

SMILES | Potency | activity change, negative = cytotoxicity
COc1ccccc1NS(=O)(=O)c1cc(NC(C)=O)ccc1N1CCCCC1 | inconclusive: 13 µM [cytotoxic, partial curve] | –
COc1ccc(NS(=O)(=O)c2cccc(NC(=O)C3=NN(c4ccccc4)C(=O)CC3)c2)cc1 | – | inactive: -18.5%
C[C@H](CO)N1C[C@H](C)[C@@H](CN(C)C(=O)Nc2ccc(F)cc2)Oc2cc(Br)ccc2S1(=O)=O | – | inactive: -19.6%
CCC(OC(=O)c1ccco1)C(=O)NC1CCCC1 (stereo unspecified) | – | inactive: -3.73%
CC(C)(c1ccccc1)c1ccc(OCCCN2CCNCC2)cc1 | – | inactive: -27.6%
CN(C1CCCCC1)S(=O)(=O)c1ccc2c(c1)c(=O)c(C(=O)N1CCN(c3ccccc3F)CC1)cn2C | – | inactive: -0.477%
O=S(=O)(c1ccccc1)c1cnc(-c2ccccc2)nc1N1CCCCC1 | – | inactive: -3.44%
N/C(=N\OC(=O)c1cc(-c2ccccc2)nc2ccccc12)c1cccnc1 | – | inactive: -13.1%
Cc1ccc(OCCn2nnc3sc4c(c3c2=O)CCC(C)C4)cc1 (stereo unspecified) | – | inactive: -7.2%
CN(C)S(=O)(=O)c1cccc(C(=O)Nc2ccccc2)c1 | – | inactive: -16.6%
Cc1sc(NC(=O)C2CCCO2)c(C#N)c1C (stereo unspecified) | – | inactive: 11.1%
COc1ccc(-c2nnc3c4ccccc4c(C)nn23)cc1 | active: 3.66 µM | –
CCOC(=O)Cn1c(O)c(N=NC(=O)OC)c2ccccc21 | inconclusive: 23.1 µM [rising, partial curve, poor fit] | –
N#Cc1c(NC(=O)CSc2ncn[nH]2)sc2c1CCCC2 | inconclusive: 23.1 µM [cytotoxic, single point] | –
CCC(=O)N1CCc2cc(S(=O)(=O)Nc3ccc4c(c3)OCCO4)ccc21 | – | inactive: 0%
N#Cc1ccccc1OCC(=O)OCC(=O)c1ccc[nH]1 | – | inconclusive: 7.54%
CN(C)C(=O)c1ccc2c(c1[N+](=O)[O-])C(=O)c1ccccc1C2=O | inconclusive: 23.1 µM [cytotoxic, partial curve] | –
COc1ccc(CN2C[C@H]3CON(C)[C@H]3C[C@H]2c2ccc(-c3ccccc3)cc2)cc1 | inconclusive: 18.4 µM [cytotoxic, partial curve] | –
Nc1c(-c2ccc(F)cc2)cnn1C1CCS(=O)(=O)C1 (stereo unspecified) | inconclusive: 29.1 µM [cytotoxic, single point] | –
CCOC(=O)C1=C(C)NC(=S)NC1c1ccc(OCC(=O)N2CCCCC2)cc1 (stereo unspecified) | – | inactive: -2.55%
Cc1ccc(NC(=O)COC(=O)CCc2c[nH]c3ccccc23)c(C)c1 | inconclusive: 0.731 µM [rising, full curve, poor fit] | –
Cc1ccc(-n2ncc3c(NNC(=O)c4ccco4)ncnc32)cc1Cl | inconclusive: 29.1 µM [cytotoxic, single point] | –
O=S(=O)(Nc1ccc(O)c2ncccc12)c1ccccc1F | – | inactive: -5.85%
Cc1ccc(N2CC(O)Cn3c2nc2c3c(=O)[nH]c(=O)n2C)cc1 (stereo unspecified) | inconclusive: 14.6 µM [rising, partial curve, poor fit] | –

Random excerpt: 3 compounds from above
SMILES | Potency | activity change, negative = cytotoxicity
CCC(C)NC(=O)C1=CC(c2ccc3c(c2)OCO3)=NS(=O)(=O)N1C (stereo unspecified) | – | inactive: 8.82%
Cc1cc(NC(=O)CN2C(=O)c3ccccc3C2=O)no1 | inconclusive: 29.1 µM [rising, single point] | –
Cc1ccc(NC(=O)CN2C(=O)NC(C)(C)C2=O)cc1S(=O)(=O)N1CCCCCC1 | inconclusive: 8.2 µM [rising, single point] | –

Further structures follow.

SMILES | Potency | activity change, negative = cytotoxicity
CC1=C(C(=O)Nc2cccc(C(=O)N3CCC(C(N)=O)CC3)c2)SCCO1 | inconclusive: 5.8 µM [rising, partial curve, poor fit] | –
CCN(C(=O)COC(=O)CCOc1ccccc1C)c1c(N)n(Cc2ccccc2)c(=O)[nH]c1=O | – | inactive: -1.92%
COc1ccc(-c2csc(NC(=O)CSCc3c(C)noc3C)n2)c(OC)c1 | inconclusive: 25.9 µM [cytotoxic, single point] | –
CC1(C)CC2CC(C)(CN2S(=O)(=O)c2cccc(C(N)=O)c2)C1 (stereo unspecified) | – | inactive: 0.35%
Cc1ccc(/C=C/C(=O)c2ccc(O)cc2)cc1 | inconclusive: 20.6 µM [cytotoxic, single point] | –
Cc1cccc(OCCNc2cc(N3CCN(C)CC3)ccc2[N+](=O)[O-])c1 | active: 16.4 µM | –
COc1ccccc1-c1noc(-c2cc(OC)c(OC)c(OC)c2)n1 | inconclusive: 18.4 µM [cytotoxic, single point] | –
O=C(Nc1ccc(F)cc1)c1ccc2c(=O)n3c(nc2c1)CCCCC3 | inconclusive: 25.9 µM [cytotoxic, single point] | –
COc1cccc2[nH]c(=O)c(-c3ccccc3)cc12 | inconclusive: 23.1 µM [rising, single point] | –
O=C(CN(Cc1ccccc1)S(=O)(=O)c1ccc(F)cc1)NCCC1=CCCCC1 | inconclusive: 16.4 µM [cytotoxic, single point] | –
COc1ccc(CNC(=S)NC2CCCC2)cc1 | – | inconclusive: -21.4%
CCCC(C)C(=O)Nc1ccc(S(=O)(=O)N2CCCC2)cc1 (stereo unspecified) | inconclusive: 29.1 µM [cytotoxic, single point] | –
COCCCNC(=O)CSc1nc2c(sc3ccccc32)c(=O)n1CCc1ccc(OC)c(OC)c1 | – | inactive: 0%
CN(C(=O)COC(=O)c1n[nH]c2ccccc12)c1ccccc1 | active: 8.2 µM | –
CCCCn1c(N)c(N(CCC(C)C)C(=O)c2[nH]c(C)c(C(=O)OCC)c2C)c(=O)[nH]c1=O | inconclusive: 10.3 µM [rising, partial curve, poor fit] | –
CC1CCc2[nH]c3ccc(C(=O)N(C)CC(=O)Nc4ccccc4Cl)cc3c2C1 (stereo unspecified) | inconclusive: 8.2 µM [cytotoxic, partial curve, poor fit] | –
Cc1noc(C)c1S(=O)(=O)N1CCCC(C(=O)c2cccc(OC(C)C)c2)C1 (stereo unspecified) | inconclusive: 11.6 µM [cytotoxic, partial curve] | –
CC12C(=O)N(Cc3ccco3)C(=O)C1C1c3ccccc3C2c2ccccc21 (stereo unspecified) | inconclusive: 29.1 µM [cytotoxic, single point] | –
CCOc1ncccc1C(=O)N1CCN(C(c2ccccc2)c2ccccc2)CC1 | inconclusive: 7.31 µM [cytotoxic, partial curve] | –
COc1ccccc1N1C(=O)C2C(c3ccc(F)cc3)NN(C(=O)c3ccc(C)cc3)C2C1=O (stereo unspecified) | – | inactive: -3.7%
CC[N+](C)(C)CC/C=C1/c2ccccc2Sc2ccc(Cl)cc21 | – | inactive: -8.23%
Cc1nn(C)c(C)c1/C=C/C(=O)c1ccc(Cl)cc1Cl | inconclusive: 2.31 µM [cytotoxic, full curve] | –
CCN(CC(=O)Nc1c(F)cccc1F)C(=O)C1CCCN(C(=O)c2ccc(Cl)cc2)C1 (stereo unspecified) | inconclusive: 18.4 µM [cytotoxic, partial curve, poor fit] | –
